Results on one substance are retold here after publication PMC6923878.

Amino acid sequences for entries named in this document (tags omitted). A change or cut given only in a name is not applied to a line headed by its entry.
UniProt Q13263: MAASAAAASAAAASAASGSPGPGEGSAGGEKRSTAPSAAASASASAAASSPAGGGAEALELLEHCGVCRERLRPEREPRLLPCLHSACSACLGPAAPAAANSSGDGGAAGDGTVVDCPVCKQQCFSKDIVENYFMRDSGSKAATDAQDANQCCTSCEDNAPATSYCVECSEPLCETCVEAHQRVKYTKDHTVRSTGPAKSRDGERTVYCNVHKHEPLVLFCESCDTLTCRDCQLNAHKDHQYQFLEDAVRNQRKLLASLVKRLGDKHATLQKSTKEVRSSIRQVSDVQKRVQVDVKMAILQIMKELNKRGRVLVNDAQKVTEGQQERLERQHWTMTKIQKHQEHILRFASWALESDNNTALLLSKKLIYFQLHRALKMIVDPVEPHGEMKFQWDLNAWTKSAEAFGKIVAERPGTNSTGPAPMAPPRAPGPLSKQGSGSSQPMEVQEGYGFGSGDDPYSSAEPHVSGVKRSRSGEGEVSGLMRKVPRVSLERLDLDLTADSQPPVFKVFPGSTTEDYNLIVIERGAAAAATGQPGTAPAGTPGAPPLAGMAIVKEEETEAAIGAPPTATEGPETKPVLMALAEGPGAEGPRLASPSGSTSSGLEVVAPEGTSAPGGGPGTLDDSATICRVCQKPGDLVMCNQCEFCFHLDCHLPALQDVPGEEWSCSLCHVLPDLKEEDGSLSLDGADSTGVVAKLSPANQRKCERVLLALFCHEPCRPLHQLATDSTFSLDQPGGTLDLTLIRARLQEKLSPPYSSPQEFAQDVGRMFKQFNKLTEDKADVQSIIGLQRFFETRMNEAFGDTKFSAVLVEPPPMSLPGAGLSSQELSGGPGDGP
UniProt P21506: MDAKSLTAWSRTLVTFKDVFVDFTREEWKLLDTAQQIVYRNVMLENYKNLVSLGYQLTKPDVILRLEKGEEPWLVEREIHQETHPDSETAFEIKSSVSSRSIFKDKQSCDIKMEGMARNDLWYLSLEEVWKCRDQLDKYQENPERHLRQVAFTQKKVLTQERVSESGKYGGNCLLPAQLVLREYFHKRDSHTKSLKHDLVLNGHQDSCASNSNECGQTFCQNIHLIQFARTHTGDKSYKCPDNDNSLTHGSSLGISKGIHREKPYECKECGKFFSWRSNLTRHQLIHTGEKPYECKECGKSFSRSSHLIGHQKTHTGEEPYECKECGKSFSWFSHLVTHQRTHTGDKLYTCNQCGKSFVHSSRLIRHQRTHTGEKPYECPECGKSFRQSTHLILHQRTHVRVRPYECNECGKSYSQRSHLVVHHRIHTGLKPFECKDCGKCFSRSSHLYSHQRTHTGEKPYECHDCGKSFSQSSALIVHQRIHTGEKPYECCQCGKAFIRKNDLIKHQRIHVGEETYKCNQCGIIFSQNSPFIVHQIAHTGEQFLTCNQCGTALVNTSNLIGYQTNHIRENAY

Results are given in words; binding and its absence hold for the method and conditions named. In cells and extracts the contact can be indirect. A result given as binding can be weak or reduced; the word gives no strength.

The test addresses TRIM28 (endogenous) (human (endogenous in HeLa)) (UniProt Q13263). The test is described as follows: co-IP; HeLa cells transiently expressing GST fusions; endogenous TRIM28 as bait, precipitated with mAb 1Tb1A9 on protein G Mag-Sepharose; TST buffer, overnight at 4 °C; Western blot with anti-TRIM28 and anti-GST.

Regarding “GST fusion of the ZNF10 KRAB-AB domain (from UniProt P21506) (domain or fragment)”, the binding result is listed as “binds”.
